# Experimental data reported in publication PMC7819943, “Rice protein-binding microarrays: a tool to detect cis-acting elements near promoter regions in rice”.
# This is one part of the list.
# Target: T1, OsSMF1 (Oryza sativa, UniProt Q6ZLB0 1-436)
# T1 sequence: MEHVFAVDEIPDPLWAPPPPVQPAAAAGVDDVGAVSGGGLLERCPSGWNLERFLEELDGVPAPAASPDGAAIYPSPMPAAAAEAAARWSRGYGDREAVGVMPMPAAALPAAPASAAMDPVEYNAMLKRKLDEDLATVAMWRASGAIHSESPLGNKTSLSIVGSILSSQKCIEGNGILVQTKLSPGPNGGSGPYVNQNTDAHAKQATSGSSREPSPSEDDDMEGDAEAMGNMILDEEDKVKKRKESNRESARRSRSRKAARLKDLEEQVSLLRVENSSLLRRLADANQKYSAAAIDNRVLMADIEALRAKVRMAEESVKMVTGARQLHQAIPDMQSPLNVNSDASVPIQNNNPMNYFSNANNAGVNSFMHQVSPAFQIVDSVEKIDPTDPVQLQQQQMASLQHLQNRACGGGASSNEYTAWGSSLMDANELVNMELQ
# Experiment: protein-binding microarray (RPBM); PBS, 2% BSA, 51.3 ng/ul salmon testes DNA, 50 uM zinc acetate, 200 nM TF, 25 C, 1 h; high values mean tight binding
# Conditions: protein: recombinant; tags: N-terminal polyhistidine and DsRed monomer fusion (pET32a); chain copies: 2; label: CyDye5-dUTP incorporated in the synthesized complementary strand; 3' TTTTT single-stranded linker to array surface; dsDNA, one strand shown
# Summary of the method: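 Binding signal here means per-feature fluorescence intensity in arbitrary units. The values were read on an Axon 4000B scanner after a custom Agilent array, double-stranded by primer extension with Cy5-dUTP, was incubated with 200 nM protein at 25 °C for 1 h in PBS with 2% BSA, salmon testes DNA and 50 µM zinc acetate, then washed. The proteins were transcription factors with an N-terminal polyhistidine tag and DsRed, expressed in E. coli BL21-CodonPlus and purified on Ni–NTA.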
row,Sequence,binding signal
1,GTTGCCACAAGTACACGGAGTGTGTTGCTTTCGTCTCCCCCGGAGTCACCTAGTGCAG,3480 fluorescence intensity (a.u.)
2,TAGATACGTACTCCTACGCGTGTGCCGTGGCCGTACGTACCGGAGTCACCTAGTGCAG,4510 fluorescence intensity (a.u.)
3,GCCCACTCGTCACTGACTCTGTACTAGTACCCACGCCACGCGGAGTCACCTAGTGCAG,4090 fluorescence intensity (a.u.)
4,GAGAGCTACTATTGTATTTCTTTTATGTCTGTCTGATTTCCGGAGTCACCTAGTGCAG,4210 fluorescence intensity (a.u.)
5,CGAGCCCAACCAGAAACCAACCGTGTCACCACTACTCCCCCGGAGTCACCTAGTGCAG,3380 fluorescence intensity (a.u.)
6,CCCTGTCTCGATGTCGATGGACTGCTCGACGACGTGGTGGCGGAGTCACCTAGTGCAG,3520 fluorescence intensity (a.u.)
7,GATGGCGCTGACACGGCGTCCTTCTTCATGCGCAACTCTGCGGAGTCACCTAGTGCAG,5800 fluorescence intensity (a.u.)
8,TGTTGGTAATGCTACGTGTTTCAAATCAAAGGCCTGCTGTCGGAGTCACCTAGTGCAG,4020 fluorescence intensity (a.u.)
9,TCGGCGGCGGCGGCGGCGGAGGAGGAGGAGGAGTCAGCGACGGAGTCACCTAGTGCAG,4090 fluorescence intensity (a.u.)
10,AATATGAGATTTTGGCCTACGTGTTCTTTACATGTAGTGTCGGAGTCACCTAGTGCAG,3710 fluorescence intensity (a.u.)
11,ATCAAAGAGGATTCTGTATTGTATTGGCAACAACCGAAAACGGAGTCACCTAGTGCAG,13800 fluorescence intensity (a.u.)
12,CCACACCGCATCGTCATCTACACATCTCCACCTCCCGCGGCGGAGTCACCTAGTGCAG,5220 fluorescence intensity (a.u.)
13,CCCAGCCCACAAAGGAAGCGAGATCACAATTTCTGGGCCGCGGAGTCACCTAGTGCAG,3400 fluorescence intensity (a.u.)
14,GTCAGCCCCGTCGTCGCCGGTCCGTCGCCGCCCGCGTCAGCGGAGTCACCTAGTGCAG,3170 fluorescence intensity (a.u.)
15,GCGTCTGGTGGTGACGCCAGGCCCGTCCACCTCCCCGTCGCGGAGTCACCTAGTGCAG,4770 fluorescence intensity (a.u.)
16,TAAGTTACACGCAACTCATCTGGTTCAGTTACGTGGAGTGCGGAGTCACCTAGTGCAG,6460 fluorescence intensity (a.u.)
17,CGCGTCGCCGTGTCCAACACGCGCGCCGCCGCCGGCGCCGCGGAGTCACCTAGTGCAG,3690 fluorescence intensity (a.u.)
18,TGGTCGGCGGCGACGGCAGTTGGTGGCGGTGGAGGTGCGACGGAGTCACCTAGTGCAG,23000 fluorescence intensity (a.u.)
19,TTAGTGAACTGAAAGTGTTACACGTCATGTAAACGAATTCCGGAGTCACCTAGTGCAG,7280 fluorescence intensity (a.u.)
20,TGGTGTAGGGTTATGATTGGATGAGTAGTGGAGGTAGGTACGGAGTCACCTAGTGCAG,3680 fluorescence intensity (a.u.)
21,TTTCTTCCTAAGATGACGAAACATTCAATGGTGTGTGGACCGGAGTCACCTAGTGCAG,3340 fluorescence intensity (a.u.)
22,CGTGTGGTTGTGGGGATGGACGCAGCTAGAGCATGGCGTGCGGAGTCACCTAGTGCAG,5170 fluorescence intensity (a.u.)
23,ATTATAGGTCCAGCTAAGTTGGCCCTGGTATATATATTGGCGGAGTCACCTAGTGCAG,3980 fluorescence intensity (a.u.)
24,ATGACGTGACATTGACGTGGCGCTTACGTGGCAATTCGACCGGAGTCACCTAGTGCAG,25600 fluorescence intensity (a.u.)
25,GTATCTCACGAGATAGGTAGGTACCTGAGTGCCTGAATTTCGGAGTCACCTAGTGCAG,24800 fluorescence intensity (a.u.)
26,TTGCTGTCTTGCGTGTTCATGCTGCCCCGCGGGCGTTGAGCGGAGTCACCTAGTGCAG,3530 fluorescence intensity (a.u.)
27,TGCCGTCTTCAACCTAGATCGACACGCATACACGCTAGGGCGGAGTCACCTAGTGCAG,5090 fluorescence intensity (a.u.)

row,Sequence,binding signal
1,ACTCATCTTGCCGAACAAACTTTCTTTTGACGCCATCGCGCGGAGTCACCTAGTGCAG,3460 fluorescence intensity (a.u.)
2,CTTTGGTGGGAGATGGATCGCAATGTCATGTGTCCCTTCTCGGAGTCACCTAGTGCAG,4350 fluorescence intensity (a.u.)
3,GCCCCGCGTCTCCCTCCGCCGCAGCAGCCTCGTCAGCTCGCGGAGTCACCTAGTGCAG,6090 fluorescence intensity (a.u.)
4,CTTTCTCTCGATGGTGATTCAGCAGGGTAGGGAAGCTCAACGGAGTCACCTAGTGCAG,3460 fluorescence intensity (a.u.)
5,CCGGCGTGGCGACGTCAGTACTCTCTTCTGCTTCATTTCTCGGAGTCACCTAGTGCAG,7490 fluorescence intensity (a.u.)
6,TGTGCTTCAAATCTTCTTCTTTGTCATGCGTCACTGCAGGCGGAGTCACCTAGTGCAG,5200 fluorescence intensity (a.u.)
7,TGCCGCCACATGCATCCAAGCCGCCTAAGCCGGCGTGCCACGGAGTCACCTAGTGCAG,3350 fluorescence intensity (a.u.)
8,GCTTGCGAGATCATCCCTGCCTGCCTGTCCCTTTCCTGCACGGAGTCACCTAGTGCAG,3220 fluorescence intensity (a.u.)
9,TACGTTTTCGTATGCGATCAATGACACGACCCTTATGGATCGGAGTCACCTAGTGCAG,3560 fluorescence intensity (a.u.)
10,AGTTTTGTGGTTTCATGGCATGGCTGACGGGGTGGTACTGCGGAGTCACCTAGTGCAG,5100 fluorescence intensity (a.u.)
11,CTCCATCTAAAGTTGGTGAAAAGCTATATAACCGTTGACTCGGAGTCACCTAGTGCAG,11800 fluorescence intensity (a.u.)
12,CGTGACGCCTACGTGGCTAATACTCTAAATTAGTCTATGTCGGAGTCACCTAGTGCAG,15800 fluorescence intensity (a.u.)
13,ATTGTCATTGACTTGTCAACAACTAGTTATTGTACATGCACGGAGTCACCTAGTGCAG,3250 fluorescence intensity (a.u.)
14,GATGATTAACGAGTCACTGTTACTACTACTTTCCCACCCTCGGAGTCACCTAGTGCAG,4490 fluorescence intensity (a.u.)
15,TCCATTGAGGCAATAAGTTTCACCGAGGACCCTATTTTGTCGGAGTCACCTAGTGCAG,10900 fluorescence intensity (a.u.)
16,TTCTTCCTCCTCCTCCTACAGTGGACTCGTGGCTGGCAGCCGGAGTCACCTAGTGCAG,3200 fluorescence intensity (a.u.)
17,CAGATCCTCTGCAGTACTGCTGATGCAATAGCAGTGGATGCGGAGTCACCTAGTGCAG,4820 fluorescence intensity (a.u.)
18,TGGGATGCCCAGTATGGTTGGCGAGTTGACATGGCTACCGCGGAGTCACCTAGTGCAG,3600 fluorescence intensity (a.u.)
19,ATCGAACGTTTGGACACATGTAAATAGTATTAAACATAGACGGAGTCACCTAGTGCAG,23400 fluorescence intensity (a.u.)
20,ATTGAGCCCGCCGCAAGGGAGTCTGGCGTGTCAGCGAGAGCGGAGTCACCTAGTGCAG,4360 fluorescence intensity (a.u.)
21,GCAACCAAGCTGCCGGCCGGCCTGACGCATCCACAGACCCCGGAGTCACCTAGTGCAG,3640 fluorescence intensity (a.u.)
22,CGTGCCCTCCATGTCCAAGAACGTCGATGGCGCGCGACCGCGGAGTCACCTAGTGCAG,26000 fluorescence intensity (a.u.)
23,TCTCCCTGATTGGTGGTGTTTGTTTGAAAAGAAAGTTTATCGGAGTCACCTAGTGCAG,19900 fluorescence intensity (a.u.)
24,ACGAGATTACCACCGCAATATGGGCAATATGGAAAATATTCGGAGTCACCTAGTGCAG,16900 fluorescence intensity (a.u.)
25,GTAACTGAGTCAATCCAGCAACGCATTGACCATATGAGCTCGGAGTCACCTAGTGCAG,3910 fluorescence intensity (a.u.)
26,TTATTAACAATATTCCAACAATTTGGGACAAGTTGTTTGACGGAGTCACCTAGTGCAG,3160 fluorescence intensity (a.u.)
27,CCCACACATCGCTGTGTCTCTGGACGCCATGACAAAACAACGGAGTCACCTAGTGCAG,3540 fluorescence intensity (a.u.)

# In another format: results already given.
row | Sequence | binding signal
1 | ACTCATCTTGCCGAACAAACTTTCTTTTGACGCCATCGCGCGGAGTCACCTAGTGCAG | 3460 fluorescence intensity (a.u.)
11 | CTCCATCTAAAGTTGGTGAAAAGCTATATAACCGTTGACTCGGAGTCACCTAGTGCAG | 11800 fluorescence intensity (a.u.)
18 | TGGGATGCCCAGTATGGTTGGCGAGTTGACATGGCTACCGCGGAGTCACCTAGTGCAG | 3600 fluorescence intensity (a.u.)
